Values are relative to the signal before dosing, not to a vehicle control; the signal also falls without drug.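 Labels refer to human fibroblasts, largely primary: uterine (C12385, HUF), lung (H6013), bone (Hs27A), adrenal (HADF), skin (WS1), plus mammary HMF and breast cancer-associated Hs343T. Cancer lines are basal-like or mesenchymal-like triple-negative breast cancer. The paper counts as hits responses shifting over 3x the replicate standard deviation. The tissue of the other fibroblasts is not given here.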
Tested on: MDAMB231
Assay: relative JC-1 red fluorescence (viability) vs pre-drug, coculture with fibroblast (fraction); higher = more viable cancer cells
Details: 100 µM
Protocol: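 JC-1 labelled TNBC cells cocultured 1:1 (1,500 cells each) with CellTrace Violet stained primary or stromal fibroblasts in 384-well plates in FluoroBrite medium, treated with one of 42 anticancer drugs at 0.1, 1, 10 or 100 uM. JC-1 red fluorescence (mitochondrial integrity in cancer cells only) was read by plate reader every 8 h for 72 h. Values are normalised to each well's pre-drug value. The stock of one drug was tenfold lower, so its dose labels may be too high.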

O=C(CCCCCCC(=O)Nc1ccccc1)NO [Vorinostat]
relative JC-1 red fluorescence
Details	8 h	16 h	24 h	32 h	40 h	48 h	56 h	64 h	72 h
coculture fibroblast: C12385	0.75958	0.725	0.651	0.615	0.554	0.551	0.513	0.505	0.487
coculture fibroblast: H6013	0.894	0.806	0.739	0.659	0.553	0.52	0.475	0.456	0.4202
coculture fibroblast: H6019	0.809	0.733	0.602	0.54	0.494	0.495	0.46	0.488	0.48
coculture fibroblast: H6076	0.885	0.782	0.693	0.628	0.561	0.519	0.509	0.526	0.533
coculture fibroblast: H6231	0.903	0.83	0.777	0.731	0.663	0.635	0.584	0.57	0.535
coculture fibroblast: HADF	0.8737	0.81	0.764	0.678	0.616	0.597	0.553	0.535	0.484
coculture fibroblast: HCFa	0.905	0.817	0.761	0.668	0.58	0.533	0.4917	0.47	0.427
coculture fibroblast: HCPF	0.882	0.778	0.693	0.641	0.549	0.497	0.442	0.411	0.385
coculture fibroblast: HHSteC	0.921	0.879	0.836	0.764	0.71	0.682	0.638	0.595	0.555
coculture fibroblast: HMF	0.879	0.776	0.695	0.644	0.575	0.534	0.473	0.457	0.436
coculture fibroblast: HPFa	0.94	0.88	0.802	0.71	0.654	0.602	0.54	0.515	0.467
coculture fibroblast: HUF	0.8211	0.727	0.7043	0.6	0.551	0.544	0.517	0.53	0.527
coculture fibroblast: Hs5	0.8632	0.77736	0.7351	0.682	0.625	0.559	0.544	0.541	0.546
coculture fibroblast: Hs27A	0.8713	0.792	0.747	0.691	0.624	0.583	0.587	0.566	0.522
coculture fibroblast: Hs343T	0.887	0.763	0.701	0.658	0.58	0.516	0.447	0.423	0.39
coculture fibroblast: WS1	0.739	0.666	0.569	0.498	0.436	0.408	0.361	0.358	0.336

— the supplement of paper PMC6078165
